Data as given in PMC6908726.
These are yes or no findings as the source states them, for the method shown. In cells and extracts the contact can be indirect. Some binding calls cover weakened binding; strength is not graded here.

What was measured:
[1] = biological target: T1, Beclin1 (mouse (endogenous in liver and BMDM)), O88597; test: co-IP; livers of LPS-treated iUVRAG^FS mice (Supplementary Fig. 2b, not shown); told only as 'similar results'; conditions: remark: other sources report otherwise
T1 chain: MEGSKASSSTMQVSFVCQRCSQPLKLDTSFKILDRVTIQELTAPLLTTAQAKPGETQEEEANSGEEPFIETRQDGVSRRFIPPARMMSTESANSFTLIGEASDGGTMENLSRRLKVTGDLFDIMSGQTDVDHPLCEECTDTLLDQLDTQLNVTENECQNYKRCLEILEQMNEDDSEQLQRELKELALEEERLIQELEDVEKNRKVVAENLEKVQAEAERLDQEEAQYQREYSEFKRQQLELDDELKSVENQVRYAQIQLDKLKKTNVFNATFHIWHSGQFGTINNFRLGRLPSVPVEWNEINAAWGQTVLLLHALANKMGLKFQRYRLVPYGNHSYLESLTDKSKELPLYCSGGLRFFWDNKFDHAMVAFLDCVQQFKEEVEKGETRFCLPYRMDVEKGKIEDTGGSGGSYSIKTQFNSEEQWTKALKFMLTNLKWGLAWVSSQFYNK

[2] = biological target: T1, Beclin1 (mouse (endogenous in liver and …)); test: co-IP; BMDMs from iUVRAG^FS mice, PBS or LPS (100 ng/ml) for 4 h, with or without Dox; IP with anti-Beclin1; lysis in 20 mM Tris pH 7.5, 150 mM NaCl, 1 mM EDTA, 2% Triton X-100; western blot; conditions: remark: other sources report otherwise

- binding [1]: binds
- binding [2]: binds
B1: Bcl-2, P10417 1-236 (protein)
chain: MAQAGRTGYDNREIVMKYIHYKLSQRGYEWDAGDADAAPLGAAPTPGIFSFQPESNPMPAVHRDMAARTSPLRPLVATAGPALSPVPPVVHLTLRRAGDDFSRRYRRDFAEMSSQLHLTPFTARGRFATVVEELFRDGVNWGRIVAFFEFGGVMCVESVNREMSPLVDNIALWMTEYLNRHLHTWIQDNGGWDAFVELYGPSMRPLFDFSWLSLKTLLSLALVGACITLGAYLGHK
